According to PMC9429577:
No constants are given. Whether binding was seen depends on the method and setting. In cells and extracts the contact can be indirect. A yes stands for co-enrichment or nearness to the bait. Other partners may have been found.

Sequences of proteins named here, by UniProt entry; tags and fusion partners are left off. A change or cut given only in a name is not applied to a line headed by its entry.
UniProt Q9GK11: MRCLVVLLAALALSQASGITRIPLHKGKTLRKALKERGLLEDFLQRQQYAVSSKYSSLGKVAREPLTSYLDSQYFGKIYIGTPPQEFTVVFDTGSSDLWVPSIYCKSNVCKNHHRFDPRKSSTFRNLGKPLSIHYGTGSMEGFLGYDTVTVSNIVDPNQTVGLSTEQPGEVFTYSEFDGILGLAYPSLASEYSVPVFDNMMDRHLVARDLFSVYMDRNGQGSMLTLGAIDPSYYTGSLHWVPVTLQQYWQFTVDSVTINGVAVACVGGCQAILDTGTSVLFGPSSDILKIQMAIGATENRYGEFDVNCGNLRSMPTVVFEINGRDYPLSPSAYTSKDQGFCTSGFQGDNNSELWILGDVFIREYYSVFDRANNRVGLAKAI
UniProt C4R887: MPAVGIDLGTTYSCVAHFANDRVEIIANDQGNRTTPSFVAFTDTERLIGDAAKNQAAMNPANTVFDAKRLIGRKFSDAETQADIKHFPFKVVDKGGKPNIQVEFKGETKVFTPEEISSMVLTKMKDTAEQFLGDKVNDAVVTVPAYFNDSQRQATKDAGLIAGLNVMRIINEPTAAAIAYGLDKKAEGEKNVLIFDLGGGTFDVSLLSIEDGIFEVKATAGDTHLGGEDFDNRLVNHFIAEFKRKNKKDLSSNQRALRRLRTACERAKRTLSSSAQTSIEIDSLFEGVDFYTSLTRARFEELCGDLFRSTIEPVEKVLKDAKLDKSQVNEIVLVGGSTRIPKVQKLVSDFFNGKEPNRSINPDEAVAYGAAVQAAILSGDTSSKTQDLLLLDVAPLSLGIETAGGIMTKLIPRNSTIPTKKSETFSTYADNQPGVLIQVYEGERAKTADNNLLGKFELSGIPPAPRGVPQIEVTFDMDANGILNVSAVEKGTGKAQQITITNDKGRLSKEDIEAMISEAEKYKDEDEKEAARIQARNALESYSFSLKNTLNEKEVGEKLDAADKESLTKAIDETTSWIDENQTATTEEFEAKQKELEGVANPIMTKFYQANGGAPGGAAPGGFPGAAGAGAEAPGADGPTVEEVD
UniProt C4R5E4: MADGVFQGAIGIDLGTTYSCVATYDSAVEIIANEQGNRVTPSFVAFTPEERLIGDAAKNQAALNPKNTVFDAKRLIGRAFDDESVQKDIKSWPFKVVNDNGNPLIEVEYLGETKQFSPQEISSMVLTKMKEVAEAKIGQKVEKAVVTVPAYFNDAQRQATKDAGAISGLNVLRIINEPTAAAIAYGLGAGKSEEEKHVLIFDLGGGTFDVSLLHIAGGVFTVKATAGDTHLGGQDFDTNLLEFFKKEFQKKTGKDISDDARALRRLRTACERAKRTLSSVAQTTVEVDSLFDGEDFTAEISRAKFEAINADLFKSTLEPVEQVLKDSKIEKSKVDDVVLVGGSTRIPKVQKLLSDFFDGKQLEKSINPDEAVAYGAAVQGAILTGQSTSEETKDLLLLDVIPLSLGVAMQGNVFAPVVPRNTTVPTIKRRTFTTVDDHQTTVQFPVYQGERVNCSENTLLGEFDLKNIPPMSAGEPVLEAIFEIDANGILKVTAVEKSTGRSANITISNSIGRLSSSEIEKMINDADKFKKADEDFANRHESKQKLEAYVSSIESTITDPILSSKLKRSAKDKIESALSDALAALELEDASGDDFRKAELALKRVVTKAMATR
UniProt C4R3X8: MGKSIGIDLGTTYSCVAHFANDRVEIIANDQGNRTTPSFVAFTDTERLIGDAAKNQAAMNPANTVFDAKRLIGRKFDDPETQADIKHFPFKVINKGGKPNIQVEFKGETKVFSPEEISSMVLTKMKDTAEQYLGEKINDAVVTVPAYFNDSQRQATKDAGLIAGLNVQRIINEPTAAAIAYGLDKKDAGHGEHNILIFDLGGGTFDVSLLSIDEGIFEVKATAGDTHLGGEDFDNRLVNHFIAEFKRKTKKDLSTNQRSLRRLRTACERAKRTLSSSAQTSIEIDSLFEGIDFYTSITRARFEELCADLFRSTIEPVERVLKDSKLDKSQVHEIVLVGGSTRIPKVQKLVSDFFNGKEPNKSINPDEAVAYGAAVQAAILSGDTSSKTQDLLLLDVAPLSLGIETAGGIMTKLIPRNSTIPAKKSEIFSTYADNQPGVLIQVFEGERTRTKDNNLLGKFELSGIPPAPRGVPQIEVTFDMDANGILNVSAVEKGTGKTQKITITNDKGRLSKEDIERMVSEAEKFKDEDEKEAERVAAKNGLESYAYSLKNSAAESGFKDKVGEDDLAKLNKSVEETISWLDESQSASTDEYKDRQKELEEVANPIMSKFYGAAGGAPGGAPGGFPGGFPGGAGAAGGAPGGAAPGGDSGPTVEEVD

The substances below were run against wild camel prochymosin (chy) (camel) (UniProt Q9GK11) (assay: affinity purification with mass spectrometry; lysates of chy-GS115 and chy34-GS115 cells after 24 h of methanol induction; rabbit anti-prochymosin polyclonal antibody on agarose beads (Immunoprecipitation Kit, Sangon); trypsin digest, three biological repetitions mixed, label-free LC-MS/MS, spectra searched against UniProt; differential interacting proteins at fold change >= 1.5).

| binding | Substance |
| --- | --- |
| binds | Hsp70 (Gene symbol: PAS_chr4_0552) (from UniProt C4R887) |
| binds | Hsp70 (Gene symbol: PAS_chr3_0731) (from UniProt C4R5E4) |
| binds | Hsp90 (Gene symbol: PAS_chr1-4_0130) (from UniProt C4QXI5) |
| binds | Hsp70 (Gene symbol: PAS_chr3_0230) (from UniProt C4R3X8) |
